Some of the results follow. Shown are side measurements of this screen, not its main read-out; they come without a call. Most of these compounds were active or inconclusive in the main read-out, so they are no random draw. Words in brackets tell the shape of the fitted curve; partial curves, single points and poor fits give uncertain potencies.
Test: qHTS Assay for Lipid Storage Modulators in Drosophila S3 Cells;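 on cell number change: cells counted by Cell Tracker Red CMTPX staining in the red channel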
Details: BODIPY lipid droplet fluorescence, 18-24 h; for cell number change: measured here: cell count max response, cells fed with added oleic acid
Method in brief: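 Drosophila S3 cells got compounds at several concentrations plus oleic acid (400 uM solution). Laser-scanning cytometry with 488 nm excitation read lipid droplets at 500-530 nm and cells at 575-640 nm. Percent activity was relative to 20 uM Triacsin C.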

[1] = measured here: lipid fluorescence (Fed channel) AC50, cells fed with added oleic acid
[2] = measured here: cell number channel AC50, cells fed with added oleic acid

| Structure (SMILES) | cell number change [%] | AC50 [1] | AC50 [2] |
| --- | --- | --- | --- |
| Cc1ccc(NC(=O)C(c2ccccc2)N2CCN(C(=O)c3ccco3)CC2)cc1 (configuration not stated) | -13.2 | 29.1 µM [falling, single point] |  |
| Cc1ccc(S(=O)(=O)N2CCC(C(=O)N[C@@H](C)C(=O)Nc3ccc4c(c3)OCO4)CC2)cc1 | -25.4 |  |  |
| NS(=O)(=O)c1ccc2c(c1)C(=NO)c1cc(S(N)(=O)=O)ccc1-2 | -1.76 | 16.4 µM [rising, partial curve] |  |
| CC(C)OC(=O)CSc1nc(N)c(C#N)c(-c2ccco2)c1C#N | -47.1 | 13 µM [falling, partial curve] | 13 µM [falling, partial curve] |
| Cc1ccc(-n2nc3c(N4CCC(C(=O)NCCc5ccccc5C)CC4)nnc(C)c3c2C)cc1 | 15.1 | 2.91 µM [rising, single point] |  |
| COc1ccc(CCOC(=O)c2cccc(NC(C)=O)c2)cc1 | 30.1 | 0.731 µM [falling, single point] | 14.6 µM [rising, single point] |
| O=C(COC(=O)Cn1cnc2ccccc21)NCCCc1ccccc1 | 106 | 16.4 µM [rising, partial curve] |  |
| C=CCn1c(COc2ccc3c(c2)CCCC3)nnc1SCC(=O)Nc1cccc(SC)c1 | -13 | 29.1 µM [falling, single point] |  |
| Cc1cc(SCC(=O)N/N=C/c2ccc(O)cc2O)nc2ccccc12 | -45.3 | 29.1 µM [falling, single point] | 18.4 µM [falling, single point] |
| Cn1c(CO)cnc1SCC(=O)c1ccc(Cl)cc1 | -21.9 |  |  |
| Cc1ccc(C)c(NC(=S)N(C)CCc2ccccn2)c1 | -40.8 | 18.4 µM [falling, single point] | 0.116 µM [falling, full curve, poor fit] |
| CC(=O)CCC(=O)NC1CCCc2c1cnn2-c1ccc(C(C)(C)C)cc1 (configuration not stated) |  | 11.6 µM [falling, partial curve, poor fit] |  |
| CCCN1CCN(CCCNC(=O)CN2C(=O)c3cccnc3Oc3ccc(C)cc32)CC1 | 23.7 |  |  |
| O=C(c1ccco1)n1nc(-c2ccc(Cl)cc2)nc1NCc1ccco1 | 0.0174 | 29.1 µM [rising, partial curve] |  |
| O=c1c2[nH]cnc2n(-c2cccc(F)c2)c(=O)n1Cc1ccccc1 | -5.56 |  |  |
| Cc1cc2nccc(-c3ccccn3)n2n1 |  | 0.146 µM [rising, full curve, poor fit] | 0.092 µM [rising, full curve, poor fit] |
| Cc1scc(C(=O)Nn2cnnc2)c1-c1ccccc1 | 2.84 | 0.731 µM [falling, full curve, poor fit] |  |
| COc1ccc(CC(O)COS(N)(=O)=O)cc1 (configuration not stated) | 19.7 | 7.31 µM [rising, partial curve] |  |
| Cc1cc(OCC(=O)Nc2ccc(S(=O)(=O)N3CCN(C)CC3)cc2)ccc1Br | 11.6 |  |  |
| CCOC(=O)c1c(C2CC2)csc1NC(C)=O |  |  | 0.291 µM [rising, partial curve, poor fit] |

| Structure (SMILES) | cell number change [%] | AC50 [1] | AC50 [2] |
| --- | --- | --- | --- |
| COc1ccccc1C(=O)N1CCNC(=O)C1CC(=O)Nc1ccc(Cl)cc1 (configuration not stated) |  | 0.184 µM [falling, full curve, poor fit] |  |
| Cc1ccccc1-c1nc(CS(=O)(=O)CC(=O)NCc2ccccc2)c(C)o1 | 66.9 | 1.84 µM [rising, full curve] | 4.61 µM [rising, partial curve] |
| CCOC(=O)c1ccc(NC(=O)CSc2nnc(COc3ccccc3)n2C)cc1 | -3.91 |  |  |
| CCOc1ccccc1NC(=O)C(=O)CC(=O)c1cccc(OC)c1 | -17.7 | 0.116 µM [falling, full curve, poor fit] |  |
| COCCN1C(=O)C(CC(=O)Nc2ccccc2)SC1=Nc1ccc(OC)cc1 (configuration not stated) | 18.6 | 2.59 µM [rising, partial curve] | 1.64 µM [rising, partial curve] |
| CCOc1ccc2nc(SCC(=O)N3c4ccccc4Sc4ccccc43)c(C#N)cc2c1 | 25.2 | 11.6 µM [rising, partial curve] |  |
| O=C(O)Cc1ccc(OCc2ccc(Cl)nc2)cc1 | 3.08 | 0.00651 µM [rising, full curve, poor fit] | 0.00517 µM [rising, full curve, poor fit] |
| COCc1cc(C)nc(SCc2ccc([N+](=O)[O-])cc2)c1C#N | -28.8 |  |  |
| O=C(CSc1ncnc2c1oc1ccccc12)c1cccs1 | 166 |  | 18.4 µM [rising, single point] |
| CC1(C)CC(CCC(=O)Nc2ccc(S(N)(=O)=O)cc2)C(=O)O1 (configuration not stated) | 33.9 |  | 7.31 µM [rising, partial curve] |
| Cc1ccc2nsnc2c1NC(=S)NC(=O)c1ccco1 |  | 1.84 µM [falling, single point] | 0.00461 µM [falling, full curve, poor fit] |
| CNC(=S)N(CCc1c(C)[nH]c2ccc(C)cc12)Cc1ccco1 | 17 | 2.31 µM [rising, full curve, poor fit] |  |
| N#Cc1cn(N2CCCCC2)c(=O)[nH]c1=O | -41.3 | 29.1 µM [falling, single point] | 23.1 µM [falling, single point] |
| CCc1cc2ccccc2nc1SCC(=O)NC1CCCC1 | 13 | 1.03 µM [falling, single point] |  |
| Cc1cc(C)c(C(=O)NC2CCCc3c2cnn3-c2cccc(C)c2C)o1 (configuration not stated) | -33.1 | 0.0291 µM [falling, full curve] | 0.00461 µM [falling, full curve] |
| Cc1ccc(-n2c(-c3cccc(C)c3)n[nH]c2=S)cc1 | 24 |  |  |
| COc1ccc(OC)c(S(=O)(=O)N2CCN(Cc3ccccc3)CC2)c1 | 29.1 | 25.9 µM [rising, partial curve, poor fit] |  |
| Cc1c(NC(=O)CS(=O)(=O)c2ccccc2)c(=O)n(-c2ccccc2)n1C | 148 |  |  |
| O=C(Nc1ccc(O)cc1)/C(=C\C=C\c1ccccc1)NC(=O)c1ccccc1 | 0.875 | 7.31 µM [falling, single point] |  |
| O=S(=O)(c1cnc(Cl)c(Br)c1)N1CCCCCC1 | -16.4 | 29.1 µM [falling, partial curve, poor fit] |  |

| Structure (SMILES) | cell number change [%] | AC50 [1] | AC50 [2] |
| --- | --- | --- | --- |
| COCCCn1c(C2CCCCC2)nc2oc3cc(OC)ccc3c(=O)c2c1=O | 1.58 | 3.26 µM [rising, single point] |  |
| CCNC(=O)C1CC(=O)N(c2ccc(OCC)cc2)C1 (configuration not stated) | 10.8 | 0.164 µM [rising, full curve, poor fit] |  |
| Cc1cc(C)n2nc(SCc3ccccc3F)nc2n1 | 11.2 | 2.91 µM [rising, partial curve, poor fit] |  |
| CCCCNS(=O)(=O)c1cc(-c2nn(C)c(=O)c3ccccc23)ccc1C | -14.2 |  |  |
| CCc1ccc(-c2cc(C)no2)cc1S(=O)(=O)Nc1ccc(C)cn1 | 3.54 | 6.51 µM [rising, single point] |  |
| CC(=O)Nc1cccn(Cc2c(Cl)cccc2Cl)c1=O | 54.7 | 0.092 µM [falling, full curve] |  |
| CCn1cc(C(=O)O)c(=O)c2cc(F)c(N3CCN(C(=S)NC(=O)c4ccccc4Cl)CC3)cc21 | 58.2 |  | 29.1 µM [rising, single point] |
| C/C(CCc1ccco1)=N\NC(=O)CNc1cccc2ccccc12 | 41.2 |  | 25.9 µM [rising, partial curve, poor fit] |
| Cc1cc2c(cc(C(=O)OCC(=O)NCc3cccs3)n2C(C)C)o1 | 30.5 | 6.51 µM [falling, single point] |  |
| CSc1ccc(CCNC(=O)CCc2nnc3ccc(N4CCCCC4)nn23)cc1 | -0.898 | 29.1 µM [falling, single point] |  |
| Cc1ccc(C)n1-c1cccc(C(=O)Nc2ccccc2)c1 |  |  | 6.51 µM [rising, single point] |
| COC(=O)[C@H](CC(C)C)NC(=O)c1cc2c(cn1)[nH]c1ccccc12 | 16.3 |  |  |
| Cc1ccc2cccc(OCc3ccc(Br)cc3)c2n1 | 76.1 | 5.17 µM [rising, full curve] | 4.61 µM [rising, full curve, poor fit] |
| CC(=O)Nc1ccc(Nc2nc(C)nc3c2nnn3Cc2ccccc2Cl)cc1 | 9.47 | 6.51 µM [falling, partial curve, poor fit] |  |
| Cc1ccc(Nc2nc(C)cc(C)c2C(N)=O)c(C)c1 | -22.1 | 29.1 µM [rising, single point] |  |
| CC(OC(=O)CN1C(=O)c2ccccc2C1=O)C(=O)c1ccccc1 (configuration not stated) | -0.825 | 29.1 µM [falling, single point] |  |
| COc1cccc(C(=O)O/N=C2\CCS(=O)(=O)c3sccc32)c1 | -13.2 | 25.9 µM [falling, single point] | 3.26 µM [falling, single point] |
| COc1ccc(-n2c(SCC#N)nnc2-c2ccc(NS(=O)(=O)c3ccc(C)cc3)cc2)cc1 | -35 | 4.11 µM [falling, full curve, poor fit] | 0.58 µM [falling, partial curve, poor fit] |
| Cc1nc(C)c(-c2csc(NCCc3ccccc3)n2)s1 | -13.2 | 23.1 µM [falling, single point] |  |
| Cc1ccc(NS(=O)(=O)c2cccc(C(=O)NCCCn3ccnc3)c2)cc1 | -75 |  | 18.4 µM [falling, single point] |

Source: PubChem BioAssay AID2685 (National Center for Advancing Translational Sciences (NCATS), 2010)
